According to PMC10925025:
These are yes or no findings as the source states them, for the method shown. Binding seen in cells or lysates may run through a third protein. Some binding calls cover weakened binding; strength is not graded here. For some of these results: Where a sequence is shown, tags or fusion partners need not be part of it.

T1: GST-tagged STAP-2 (signal-transducing adaptor protein-2), full (UniProt Q9UGK3)
T1 sequence: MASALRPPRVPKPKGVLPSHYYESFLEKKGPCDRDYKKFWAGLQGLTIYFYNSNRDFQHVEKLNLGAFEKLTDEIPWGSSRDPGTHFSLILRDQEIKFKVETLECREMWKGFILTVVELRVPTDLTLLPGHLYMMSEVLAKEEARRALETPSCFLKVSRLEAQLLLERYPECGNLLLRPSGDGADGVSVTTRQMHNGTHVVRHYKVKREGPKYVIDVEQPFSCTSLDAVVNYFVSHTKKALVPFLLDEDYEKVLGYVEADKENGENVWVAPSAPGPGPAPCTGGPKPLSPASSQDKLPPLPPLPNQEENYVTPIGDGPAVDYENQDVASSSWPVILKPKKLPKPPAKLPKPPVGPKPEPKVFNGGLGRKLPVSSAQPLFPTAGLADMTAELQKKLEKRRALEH

T2: STAP-2, endogenous in 3T3-L1 cells (mouse (endogenous in 3T3-L1)) (UniProt Q8R0L1)
T2 sequence: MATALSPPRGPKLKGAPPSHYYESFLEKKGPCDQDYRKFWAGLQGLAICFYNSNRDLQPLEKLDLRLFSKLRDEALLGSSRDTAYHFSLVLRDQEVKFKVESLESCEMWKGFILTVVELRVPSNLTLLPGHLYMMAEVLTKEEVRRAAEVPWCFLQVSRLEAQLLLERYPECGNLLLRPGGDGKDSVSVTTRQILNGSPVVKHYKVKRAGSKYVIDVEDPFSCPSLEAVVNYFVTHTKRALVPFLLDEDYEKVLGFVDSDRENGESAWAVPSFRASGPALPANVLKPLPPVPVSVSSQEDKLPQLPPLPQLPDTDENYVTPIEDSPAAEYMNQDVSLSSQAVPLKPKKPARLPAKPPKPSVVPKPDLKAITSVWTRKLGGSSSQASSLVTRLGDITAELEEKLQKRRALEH

B1: Myc-tagged c-Cbl associated protein (CAP) (protein, UniProt Q62417 1-1290)
chain: MSSECDVGSSKAVVNGLASGNHGPDKDMDPTKICTGKGTVTLRASSSYRGTPSSSPVSPQESPKHESKSGLEPEDPSADEWKLSSSADTNGNAQPSPLAAKGYRSVHPSLSADKPQGSPLLNEVSSSHIETDSQDFPPTSRPSSAYPSTTIVNPTIVLLQHNRDPASERRAGEQDPVPTPAELTSPGRASERRAKDASRRVVRSAQDLSDVSTDEVGIPLRNTERSKDWYKTMFKQIHKLNRDDDSDVHSPRYSFSDDTKSPLSVPRSKSEMNYIEGEKVVKRSATLPLPARSSSLKSSPERNDWEPLDKKVDTRKYRAEPKSIYEYQPGKSSVLTNEKMSRDISPEEIDLKNEPWYKFFSELEFGRPTNLEKDLSFCQAELEADLEKVETVNKSPSANSPQSSAVSPTPDITSEPPGYIYSSNFHAVKRESDGTPGGLASLENERQIYKSVLEGGDIPLQGLSGLKRPSSSASTKVDRKGGNAHMISSSSVHSRTFHTSNALGPGCKHKKPLSAAKACISEILPSKFKPRLSAPSALLQEQKSVLLPSEKAQSCENLCVSLNDSKRGLPLRVGGSIENLLMRSRRDYDSKSSSTMSLQEYGTSSRRPCPLSRKAGLHFSMFYRDMHQINRAGLSLGSISSSSVRDLASHFERSSLTLARGELGASQEGSEHIPKHTVSSRITAFEQLIQRSRSMPSLDFSGRLSKSPTPVLSRSGLTSARSAESLLESTKLRPREMDGMDSGGVYASPTCSNMADHALSFRSLVPSEPLSICSDELDHCSNVSNDSREGSGGSVHGDFPKHRLNKCKGTCPASYTRFTTIRKHEQQSSRQSDWRSDSRGDKNSLLRNIHLMSPLPFRLKKPLQQHPRQPPPSDSSESPAGQKADLPCHDPQDQPHSAGKPQVPTRLSSRHTMARLSHNSEPPLDRPAGLEDCTRAINNGNPVPYSDHGLDRNNNPQSELAAAHGDSESPRHFIPADYLESTEEFIRRRHDDKEKLLADQRRLKREQEEADIAARRHTGVIPTHHQFITNERFGDLLNIDDTAKRKSGLEMRPARAKFDFKAQTLKELPLQKGDVVYIYRQIDQNWYEGEHHGRVGIFPRTYIELLPPAEKAQPRKLAPVQVLEYGEAIAKFNFNGDTQVEMSFRKGERITLLRQVDENWYEGRIPGTSRQGIFPITYVDVLKRPLVKTPVDYIDLPYSSSPSRSATVSPQQPQAQQRRVTPDRSQPSLDLCSYQALYSYVPQNDDELELRDGDIVDVMEKCDDGWFVGTSRRTRQFGTFPGNYVKPLYL
B2: c-Cbl associated protein (CAP), endogenous in 3T3-L1 cells (protein, UniProt Q62417 1-1290)
chain: B1 chain
B3: GST-tagged STAP-2 (signal-transducing adaptor protein-2), full (protein, UniProt Q9UGK3 1-403)
chain: T1 sequence

Key:
[1] = biological target: T1, GST-tagged STAP-2 (signal-transducing adaptor protein-2), full; assay: pull-down; HEK293T co-transfected with Myc-CAP and GST-STAP-2 constructs; lysed 36 h after transfection (50 mM Tris-HCl pH 7.4, 0.15 M NaCl, 1% NP-40); GSH-sepharose 2 h at 4 °C; blots with anti-Myc and anti-GST
[2] = biological target: Myc-tagged c-Cbl (UniProt P22681); assay: co-IP; HEK293T co-transfected with Myc-Cbl and Myc-CAP together with control GST or GST-STAP-2; lysed 36 h after transfection; immunoprecipitated with anti-c-Cbl antibody; blots with anti-Myc and anti-GST
[3] = biological target: T2, STAP-2, endogenous in 3T3-L1 cells (mouse (endogenous in 3T3-L1)); assay: co-IP; endogenous proteins; 3T3-L1 lysate on day 6 after adipose differentiation; immunoprecipitated with anti-STAP-2 antibody or normal rabbit IgG; blots with anti-CAP and anti-STAP-2

Binder	binding [1]	binding [2]	binding [3]
B1	binds	binds	–
B2	–	–	binds
B3	–	binds	–
